Assay results as given in publication PMC12844663.

Legend:
[1] = molecular target: T1, CiWOX13-His (Carya illinoinensis) (UniProt A0A8T1PP68); experiment: EMSA; conditions: Chemiluminescent EMSA Kit (MH104, Coolaber) per manufacturer; unlabeled cold probes as competitor; pH and temperature not stated; recombinant protein; protein details: His; label: biotin
T1 sequence (looked up, limits assumed): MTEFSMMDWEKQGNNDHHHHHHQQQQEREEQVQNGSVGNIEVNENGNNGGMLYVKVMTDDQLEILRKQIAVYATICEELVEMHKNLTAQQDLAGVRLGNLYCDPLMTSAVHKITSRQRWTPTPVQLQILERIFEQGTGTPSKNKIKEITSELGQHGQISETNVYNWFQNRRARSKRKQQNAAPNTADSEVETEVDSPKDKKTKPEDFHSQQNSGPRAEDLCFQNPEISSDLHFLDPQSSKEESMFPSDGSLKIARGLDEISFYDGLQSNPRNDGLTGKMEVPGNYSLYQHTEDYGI

[2] = molecular target: T2, CiWOX14-His (Carya illinoinensis) (UniProt A0A8T1PX11); experiment: EMSA; conditions: Chemiluminescent EMSA Kit (MH104, Coolaber) per manufacturer; unlabeled cold probes as competitor; pH and temperature not stated; recombinant protein; protein details: His; label: biotin
T2 sequence (looked up, limits assumed): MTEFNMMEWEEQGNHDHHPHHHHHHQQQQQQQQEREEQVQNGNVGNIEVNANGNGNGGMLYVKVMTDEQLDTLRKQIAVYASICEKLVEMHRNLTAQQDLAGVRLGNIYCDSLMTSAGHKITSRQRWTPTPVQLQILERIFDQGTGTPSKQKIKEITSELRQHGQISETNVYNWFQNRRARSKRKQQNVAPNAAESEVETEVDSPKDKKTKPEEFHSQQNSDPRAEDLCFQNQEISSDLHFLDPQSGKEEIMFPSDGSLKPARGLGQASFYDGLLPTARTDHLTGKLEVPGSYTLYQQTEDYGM

Sequence | binding result [1] | binding result [2]
TAACAGAAGCATGAACACGACAAAGTTTGTAGAAAA / TTTTCTACAAACTTTGTCGTGTTCATGCTTCTGTTT [CiBGLU21-p2] | binds | binds
GAGAATTTGCGGGACACGTAGTATTTTTCTTTTTT / AAAAAAGAAAAATACTACGTGTCCCGCGAAATTCTC [CiBGLU21-p3] | binds | binds
GGCACAACTGTATAGGACGTGTTCCACCACTGAACA (double strand) [CiBGLU21-p1] | binds | binds

The exact form of at least one protein or probe is not confirmed. At least one verdict was read from the data and is not stated in words by the source. Tags and fusion partners may be left off the protein sequences shown.
